Here are results for 64 substances from the supplement of paper PMC5949888.

Most values lie at the floor of the assay. Slopes are relative: functional sequences can read slightly below zero.

The subject of this series is Saccharomyces cerevisiae PS128 hsf1 delta, HSF1(1-493) fusion. Put plainly: growth estimate (transactivation domain function in HSF1 fusion, heat-shock survival) (a.u. (slope of normalised read count over time)); higher = stronger growth at 37°C, i.e. more transactivation activity. As to conditions: library: random library.
Take SSRGIFIRIEVWIA: the growth estimate was < -0.25.
In the case of YDDSEYGVVRIYVVTGWEAA it was < -0.25.
For the substance RLPL, the growth estimate is < -0.25.
In the case of FGHPIRREP it was < -0.25.
In the case of FKNLNSRCSVTASTEKDLSR it was < -0.25; in that of SGVSRWLPCPGGIFQMFRNA, < -0.25.
For KHSPFHS, the growth estimate is < -0.25.
In the case of NGRRESPLKDLGKVAKDQSV it was < -0.25; in that of DAYM, < -0.25; in that of ETWDLLRSNFGPCADEGCKS, < -0.25.
In the case of LVCKGSKWC it was < -0.25.
In the case of SVQQDNTQGAQRRRALGAPL it was < -0.25; in that of FAPVGARLDVYQPAIGCVLA, < -0.25.
For the substance VTDGKLSPSTFPKRVKPIRG, the growth estimate is < -0.25.
For FSQSLFYAVYWRVCPATRDQ, the growth estimate was < -0.25.
As for PPG, the figure is < -0.25; as for CVPAGSPPRSGATHLGQERG, < -0.25.
With WAPVMKSSSWLQRLPICAAL, the growth estimate was < -0.25.
For the substance LSIVCNGNGIGARNASSGVR, the growth estimate was < -0.25.
For YRPVEEAFLSGNGPWPQHNR, the growth estimate is < -0.25.
With TRVSKI, the growth estimate was < -0.25.
As for GNPPTLFDERRQRRLRAIAR, the figure is < -0.25; as for VCGPSSSGMFQGTYVTLD, < -0.25.
For AESA, the growth estimate was < -0.25.
As for GLWSHPTLLIRIRATGPRRR, the figure is < -0.25; as for VWLVD, < -0.25.
As to NLRVHSKTAVSRNIGRSPLQ, the growth estimate was -0.245.
Turning to NRF, the growth estimate was -0.245.
As for RYLRDPSCTECRGTWTGQNH, the figure is < -0.25; as for RSHYRVLGVLGEVTLGVSIR, 0.0073.
In the case of GLCSSSGGTWAGLQSRAFGH it was < -0.25; in that of LEGLQRY, < -0.25; in that of PDGRHG, < -0.25.
As for WRQTARVRT, the figure is < -0.25.
Consider LLSSSDFNSPGCSDRYTPIT, for which the growth estimate was < -0.25.
With IKAISPRARGVPGHEAGVYR, the growth estimate was < -0.25.
As for TVRRKDRVSFARGDKPSPFG, the figure is < -0.25; as for TIKRRSESACRLIDAG, < -0.25; as for WKGYQISCAGRR, < -0.25.
As for LFVGKVGLNIVVSTGPL, the figure is < -0.25; as for QPSI, < -0.25; as for PQVWWWDAVSDNR, < -0.25.
In the case of RKSTS it was < -0.25.
As to IDRLIISLLGQYWLRRLFWC, the growth estimate was < -0.25.
As for KGMYYFSVMPG, the figure is < -0.25; as for SLHWHRESVNTCAGSKILDP, < -0.25.
As for CREAQMGPRCMDMRRGWRIS, the figure is < -0.25; as for VHGSSVEF, < -0.25.
As for LQLNFTSELITRKDSSVVYE, the figure is < -0.25; as for SMGTSR, < -0.25.
On to TIRFKNGHGRVPRYMGRKLW, for which the growth estimate was -0.0781.
As to TVYGEKHFWPGSSRLGGESR, the growth estimate is < -0.25.
As for NLPPLDIIDGNVRRAPPNAV, the figure is < -0.25; as for QFRV, < -0.25.
As for LYAVRQPKGISSLCLQERYN, the figure is < -0.25.
As for YSTLSDRKCVAHRDWAKLCL, the figure is < -0.25; as for SGRQGRESSLYLEVNTKRTS, < -0.25.
As for VIRWSDLSLTSAKDKGMLQM, the growth estimate was < -0.25.
As for LPTFRW, the figure is < -0.25; as for PDDINVRLA, < -0.25.
For the substance PCCSIL, the growth estimate is < -0.25.
In the case of RKYRATVSLVVS it was -0.243; in that of QKDKSSSCLCFTIRPGFGEA, < -0.25.
Take ALLGSRRDLYVPHVSPVISR: the growth estimate was < -0.25.
